{"source": "paper PMC10304470", "about": "“Characterization of the Antimicrobial Activities of Trichoplusia ni Cecropin A as a High-Potency Therapeutic against Colistin-Resistant Escherichia coli” (Pharmaceutics, 2023)", "note": "Peptide text beside a SMILES is read from it."}
{"tested_on": "all bacterial strains", "test": "Average MIC over all strains and relative selective index", "assay_type": "cell-based", "details": "higher = higher cell selectivity", "method": "The antibacterial abilities of the peptides (T. ni cecropin, cecropin A, polymyxin B, colistin, and melittin) were determined using the broth dilution method as previously reported. The peptides dissolved at 10 mg/mL in deionized water were serially diluted from 64 μM to 0.5 μM in 96-well plates using Mueller–Hinton (MH) broth, and bacteria cultured to exponential growth were added at 2 × 10^5 cells/mL. The group of bacteria that grew untreated in the broth was set as the positive control, and the uninoculated broth as the negative control. Dissolved peptides are colorless and equal to the OD value of the medium only. After 16 h incubation at 37 °C, the absorbance at 600 nm was measured using a SpectraMAX microplate reader (Molecular Devices, San Jose, CA, USA)."}
{"compound": "CC[C@H](C)CCCCC(=O)N[C@@H](CCN)C(=O)N[C@H](C(=O)N[C@@H](CCN)C(=O)N[C@H]1CCNC(=O)[C@H]([C@@H](C)O)NC(=O)[C@H](CCN)NC(=O)[C@H](CCN)NC(=O)[C@H](CC(C)C)NC(=O)[C@@H](Cc2ccccc2)NC(=O)[C@H](CCN)NC1=O)[C@@H](C)O", "note": "[polymyxin B] (HELM PEPTIDE1{[CC[C@H](C)CCCCC(=O)[*:2]].[Dab].T.[Dab].[Dab].[Dab].[dF].L.[Dab].[Dab].T}$PEPTIDE1,PEPTIDE1,5:R3-11:R2$$$V2.0; N-terminus assumed; bridges inferred)", "Relative selective index (HC10/GM)": 11.19}
{"compound": "CC[C@H](C)[C@H](NC(=O)CN)C(=O)NCC(=O)N[C@@H](C)C(=O)N[C@H](C(=O)N[C@@H](CC(C)C)C(=O)N[C@@H](CCCCN)C(=O)N[C@H](C(=O)N[C@@H](CC(C)C)C(=O)N[C@H](C(=O)N[C@H](C(=O)NCC(=O)N[C@@H](CC(C)C)C(=O)N1CCC[C@H]1C(=O)N[C@@H](C)C(=O)N[C@@H](CC(C)C)C(=O)N[C@H](C(=O)N[C@@H](CO)C(=O)N[C@@H](Cc1c[nH]c2ccccc12)C(=O)N[C@H](C(=O)N[C@@H](CCCCN)C(=O)N[C@@H](CCCNC(=N)N)C(=O)N[C@@H](CCCCN)C(=O)N[C@@H](CCCNC(=N)N)C(=O)N[C@@H](CCC(N)=O)C(=O)N[C@@H](CCC(N)=O)C(N)=O)[C@@H](C)CC)[C@@H](C)CC)[C@@H](C)O)[C@@H](C)O)C(C)C)C(C)C", "note": "[melittin]", "Relative selective index (HC10/GM)": 0.22}
{"compound": "CC[C@H](C)CCCCC(=O)N[C@@H](CCN)C(=O)N[C@H](C(=O)N[C@@H](CCN)C(=O)N[C@H]1CCNC(=O)[C@H]([C@@H](C)O)NC(=O)[C@H](CCN)NC(=O)[C@H](CCN)NC(=O)[C@H](CC(C)C)NC(=O)[C@@H](CC(C)C)NC(=O)[C@H](CCN)NC1=O)[C@@H](C)O", "note": "[colistin] (HELM PEPTIDE1{[CC[C@H](C)CCCCC(=O)[*:2]].[Dab].T.[Dab].[Dab].[Dab].[dL].L.[Dab].[Dab].T}$PEPTIDE1,PEPTIDE1,5:R3-11:R2$$$V2.0; N-terminus assumed; bridges inferred)", "Relative selective index (HC10/GM)": 5.93}
